Results on one compound are retold here after patent publication US5565424A, “Superactive VIP antagonists” (Ramot - University Authority for Applied Research and …, priority 1994, dated 1996).

Molecules are shown by their SMILES.

The subject of this data set is VIP receptors on neuroblastoma (NMB) cells. The data set can be described thus: VIP binding and displacement on intact neuroblastoma (NMB) cells. On the set-up: species or system human. As to the method: Alternatively, the VIP was iodinated according to the procedure described by Werner, et al. (Biochem. Biophys. Res. Commun., 133:228-232 (1985)). […] Experiments were repeated at least three times, each containing triplicates, error bars represent the standard error. Cells were grown for 24 hours (circles) and 48 hours (triangles). […] The binding parameters were determined by ACCUFIT program, Lundon-2 competition analysis (LUNDON software Inc., Chargin Falls, Ohio, U.S.A.). […] The calculated Bmax was 6×10^-14 moles/mg and 1.5×10^-14 moles/mg for cells grown for 24 hours as compared to cells grown for 48 hours, respectively.

`CC[C@H](C)[C@H](NC(=O)[C@H](CO)NC(=O)[C@H](CC(N)=O)NC(=O)[C@H](CC(C)C)NC(=O)[C@H](Cc1ccc(O)cc1)NC(=O)[C@H](CCCCN)NC(=O)[C@H](CCCCN)NC(=O)[C@@H](NC(=O)[C@H](C)NC(=O)[C@H](CCSC)NC(=O)[C@H](CCC(N)=O)NC(=O)[C@H](CCCCN)NC(=O)[C@H](CCCNC(=N)N)NC(=O)[C@H](CC(C)C)NC(=O)[C@H](CCCNC(=N)N)NC(=O)[C@@H](NC(=O)[C@H](Cc1ccc(O)cc1)NC(=O)[C@H](CC(N)=O)NC(=O)[C@H](CC(=O)O)NC(=O)[C@@H](NC(=O)[C@H](Cc1ccccc1)NC(=O)[C@@H](NC(=O)[C@H](C)NC(=O)[C@H](CC(=O)O)NC(=O)[C@H](CO)NC(=O)[C@@H](N)Cc1c[nH]cn1)C(C)C)[C@@H](C)O)[C@@H](C)O)C(C)C)C(=O)N[C@@H](CC(C)C)C(=O)N[C@@H](CC(N)=O)C(N)=O` [VIP, Vasoactive intestinal polypeptide]: the Bmax reads like this: (cells grown for 24 hours) 6e-14 mol/mg; (cells grown for 48 hours) 1.5e-14 mol/mg.
